Measurements as given in patent US20080070791A1 (ZEPHYR PROTEOMIX, published 2008).
Results are given in words; binding and its absence hold for the method and conditions named. Some binding calls cover weakened binding; strength is not graded here.

Protein sequences, listed by entry. Tags and fused reporters are not part of them. Lines headed by an entry give the natural chain unless they say otherwise; changes in a name come on top.
UniProt P13612: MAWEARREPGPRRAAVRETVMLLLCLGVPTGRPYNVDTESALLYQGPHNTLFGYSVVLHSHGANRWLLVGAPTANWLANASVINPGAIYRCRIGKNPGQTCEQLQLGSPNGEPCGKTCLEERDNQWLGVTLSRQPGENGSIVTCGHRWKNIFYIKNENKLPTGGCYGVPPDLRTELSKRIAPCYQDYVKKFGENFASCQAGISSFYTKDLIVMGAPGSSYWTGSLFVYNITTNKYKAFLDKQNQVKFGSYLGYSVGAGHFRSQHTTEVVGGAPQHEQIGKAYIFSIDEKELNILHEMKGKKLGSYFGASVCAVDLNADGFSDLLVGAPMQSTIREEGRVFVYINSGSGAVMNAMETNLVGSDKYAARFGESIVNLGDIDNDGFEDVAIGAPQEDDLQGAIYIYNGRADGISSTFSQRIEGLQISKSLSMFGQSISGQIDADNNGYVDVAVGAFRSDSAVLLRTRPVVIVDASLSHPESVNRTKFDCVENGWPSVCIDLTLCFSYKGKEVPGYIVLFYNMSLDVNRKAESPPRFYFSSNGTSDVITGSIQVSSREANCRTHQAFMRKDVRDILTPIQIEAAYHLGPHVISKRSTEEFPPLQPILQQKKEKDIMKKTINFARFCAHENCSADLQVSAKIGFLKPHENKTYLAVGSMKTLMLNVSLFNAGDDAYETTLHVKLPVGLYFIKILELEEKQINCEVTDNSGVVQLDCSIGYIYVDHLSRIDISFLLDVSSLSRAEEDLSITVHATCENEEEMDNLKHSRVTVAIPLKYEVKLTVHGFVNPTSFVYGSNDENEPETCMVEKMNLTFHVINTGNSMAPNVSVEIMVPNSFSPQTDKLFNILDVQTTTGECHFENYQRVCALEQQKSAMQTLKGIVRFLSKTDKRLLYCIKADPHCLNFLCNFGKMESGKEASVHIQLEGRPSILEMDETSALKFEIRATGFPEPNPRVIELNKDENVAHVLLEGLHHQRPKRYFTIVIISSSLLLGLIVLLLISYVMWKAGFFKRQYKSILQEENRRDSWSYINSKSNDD
UniProt Q06851: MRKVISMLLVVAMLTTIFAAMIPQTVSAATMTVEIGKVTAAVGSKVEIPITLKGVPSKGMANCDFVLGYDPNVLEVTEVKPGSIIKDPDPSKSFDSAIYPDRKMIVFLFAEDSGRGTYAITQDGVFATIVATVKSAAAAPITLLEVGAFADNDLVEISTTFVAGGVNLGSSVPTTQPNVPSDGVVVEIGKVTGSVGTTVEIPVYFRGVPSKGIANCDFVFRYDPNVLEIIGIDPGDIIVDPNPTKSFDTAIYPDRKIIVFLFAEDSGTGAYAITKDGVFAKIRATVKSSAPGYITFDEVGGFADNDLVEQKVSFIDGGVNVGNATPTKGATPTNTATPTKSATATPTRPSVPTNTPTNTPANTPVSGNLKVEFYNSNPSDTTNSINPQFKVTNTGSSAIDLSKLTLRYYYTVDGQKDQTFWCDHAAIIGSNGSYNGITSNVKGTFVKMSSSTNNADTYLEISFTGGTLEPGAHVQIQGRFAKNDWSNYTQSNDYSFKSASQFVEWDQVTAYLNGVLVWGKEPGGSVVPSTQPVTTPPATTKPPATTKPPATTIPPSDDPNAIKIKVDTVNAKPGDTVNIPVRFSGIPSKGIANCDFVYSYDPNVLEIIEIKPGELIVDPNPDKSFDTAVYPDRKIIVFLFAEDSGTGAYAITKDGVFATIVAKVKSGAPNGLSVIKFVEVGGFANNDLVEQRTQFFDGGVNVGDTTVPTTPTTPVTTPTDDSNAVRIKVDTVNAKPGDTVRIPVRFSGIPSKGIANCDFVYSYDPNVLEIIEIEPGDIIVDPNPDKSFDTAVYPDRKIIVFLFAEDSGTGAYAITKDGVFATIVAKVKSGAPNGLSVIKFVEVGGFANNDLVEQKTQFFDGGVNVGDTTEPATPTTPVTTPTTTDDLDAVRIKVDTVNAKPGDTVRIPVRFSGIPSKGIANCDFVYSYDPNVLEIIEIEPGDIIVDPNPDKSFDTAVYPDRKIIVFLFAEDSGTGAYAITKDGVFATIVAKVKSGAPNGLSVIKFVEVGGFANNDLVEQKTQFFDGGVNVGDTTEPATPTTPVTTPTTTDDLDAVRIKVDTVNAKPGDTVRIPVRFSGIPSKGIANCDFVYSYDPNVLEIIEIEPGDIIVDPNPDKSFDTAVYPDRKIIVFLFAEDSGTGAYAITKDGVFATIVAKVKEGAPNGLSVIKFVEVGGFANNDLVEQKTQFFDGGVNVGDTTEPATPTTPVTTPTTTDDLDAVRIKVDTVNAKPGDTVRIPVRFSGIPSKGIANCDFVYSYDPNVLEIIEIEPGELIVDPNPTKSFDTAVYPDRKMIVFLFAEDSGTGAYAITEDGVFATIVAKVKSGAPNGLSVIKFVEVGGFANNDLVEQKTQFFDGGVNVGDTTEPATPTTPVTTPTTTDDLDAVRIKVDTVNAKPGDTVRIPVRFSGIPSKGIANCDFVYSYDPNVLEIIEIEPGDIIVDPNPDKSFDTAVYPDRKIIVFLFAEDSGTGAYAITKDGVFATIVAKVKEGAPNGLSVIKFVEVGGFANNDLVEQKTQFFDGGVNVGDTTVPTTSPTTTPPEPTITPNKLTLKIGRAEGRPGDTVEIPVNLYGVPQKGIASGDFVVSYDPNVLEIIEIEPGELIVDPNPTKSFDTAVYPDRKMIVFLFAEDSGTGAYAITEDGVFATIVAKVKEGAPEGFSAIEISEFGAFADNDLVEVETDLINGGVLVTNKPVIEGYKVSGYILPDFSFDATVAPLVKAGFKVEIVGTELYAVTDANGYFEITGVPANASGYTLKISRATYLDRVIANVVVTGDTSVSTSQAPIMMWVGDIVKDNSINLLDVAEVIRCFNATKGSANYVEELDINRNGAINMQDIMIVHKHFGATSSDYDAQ

Biological target: T1, α4β1 integrin expressed on Jurkat cells (human, UniProt P13612 34-1032; P05556 21-798)
T1 construct: whole, on cells; Fluorescence-labeled Jurkat cells applied to the microarray; also called receptor recognizing the CS1 peptide
Assay: cell adhesion of labeled Jurkat cells on microarray

“ZEPHYRIN-CS1 (from UniProt Q06851 361-527)” was tested, and the binding was “binds”.
